Results: publication PMC10818623, “Assessing Trans-Inhibition of OATP1B1 and OATP1B3 by Calcineurin and/or PPIase Inhibitors and Global Identification of OATP1B1/3-Associated Proteins” (Pharmaceutics, 2023)

T1: FLAG-tagged OATP1B1 (organic anion transporting polypeptide 1B1) (UniProt Q9Y6L6)
T1 sequence: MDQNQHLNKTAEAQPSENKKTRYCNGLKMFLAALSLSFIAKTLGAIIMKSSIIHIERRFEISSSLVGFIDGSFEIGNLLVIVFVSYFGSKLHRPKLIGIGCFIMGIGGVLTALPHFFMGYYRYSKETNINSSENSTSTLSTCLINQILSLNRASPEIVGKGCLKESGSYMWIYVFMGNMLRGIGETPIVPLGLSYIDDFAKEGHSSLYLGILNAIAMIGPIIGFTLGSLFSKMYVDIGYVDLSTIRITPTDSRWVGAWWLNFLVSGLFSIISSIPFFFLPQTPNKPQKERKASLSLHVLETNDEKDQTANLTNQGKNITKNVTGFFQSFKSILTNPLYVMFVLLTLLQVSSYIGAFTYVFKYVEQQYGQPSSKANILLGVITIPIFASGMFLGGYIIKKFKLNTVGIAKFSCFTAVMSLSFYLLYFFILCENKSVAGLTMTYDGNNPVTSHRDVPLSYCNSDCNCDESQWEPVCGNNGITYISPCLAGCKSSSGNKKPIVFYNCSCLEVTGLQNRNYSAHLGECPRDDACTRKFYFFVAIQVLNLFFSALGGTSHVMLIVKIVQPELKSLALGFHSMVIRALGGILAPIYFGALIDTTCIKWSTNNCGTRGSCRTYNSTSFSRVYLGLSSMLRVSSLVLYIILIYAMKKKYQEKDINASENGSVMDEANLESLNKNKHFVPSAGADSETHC

T2: FLAG-tagged OATP1B3 (organic anion transporting polypeptide 1B3) (UniProt Q9NPD5)
T2 sequence: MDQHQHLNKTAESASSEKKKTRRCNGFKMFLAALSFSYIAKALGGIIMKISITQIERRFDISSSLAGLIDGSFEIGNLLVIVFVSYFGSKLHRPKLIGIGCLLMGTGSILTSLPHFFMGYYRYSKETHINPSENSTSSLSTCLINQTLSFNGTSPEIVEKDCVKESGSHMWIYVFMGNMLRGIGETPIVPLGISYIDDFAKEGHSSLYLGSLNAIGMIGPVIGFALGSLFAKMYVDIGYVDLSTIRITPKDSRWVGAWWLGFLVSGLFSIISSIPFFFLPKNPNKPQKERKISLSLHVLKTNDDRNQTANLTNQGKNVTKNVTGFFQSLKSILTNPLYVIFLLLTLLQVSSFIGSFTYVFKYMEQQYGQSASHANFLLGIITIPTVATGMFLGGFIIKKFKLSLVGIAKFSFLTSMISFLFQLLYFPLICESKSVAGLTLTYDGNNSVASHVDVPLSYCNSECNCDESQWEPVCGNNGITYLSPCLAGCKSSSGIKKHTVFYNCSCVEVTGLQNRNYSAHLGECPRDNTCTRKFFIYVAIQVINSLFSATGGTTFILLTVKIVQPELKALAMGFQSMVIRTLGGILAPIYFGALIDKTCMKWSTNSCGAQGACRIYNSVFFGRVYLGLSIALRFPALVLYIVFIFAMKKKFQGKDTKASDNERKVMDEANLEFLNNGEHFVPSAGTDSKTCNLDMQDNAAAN

B1: Ubiquitin conjugation factor E4 A (enzyme, UniProt Q14139 1-1066)
chain: MTDQENNNNISSNPFAALFGSLADAKQFAAIQKEQLKQQSDELPASPDDSDNSVSESLDEFDYSVAEISRSFRSQQEICEQLNINHMIQRIFLITLDNSDPSLKSGNGIPSRCVYLEEMAVELEDQDWLDMSNVEQALFARLLLQDPGNHLINMTSSTTLNLSADRDAGERHIFCYLYSCFQRAKEEITKVPENLLPFAVQCRNLTVSNTRTVLLTPEIYVDQNIHEQLVDLMLEAIQGAHFEDVTEFLEEVIEALILDEEVRTFPEVMIPVFDILLGRIKDLELCQILLYAYLDILLYFTRQKDMAKVFVEYIQPKDPTNGQMYQKTLLGVILSISCLLKTPGVVENHGYFLNPSRSSPQEIKVQEANIHQFMAQFHEKIYQMLKNLLQLSPETKHCILSWLGNCLHANAGRTKIWANQMPEIFFQMYASDAFFLNLGAALLKLCQPFCKPRSSRLLTFNPTYCALKELNDEERKIKNVHMRGLDKETCLIPAVQEPKFPQNYNLVTENLALTEYTLYLGFHRLHDQMVKINQNLHRLQVAWRDAQQSSSPAADNLREQFERLMTIYLSTKTAMTEPQMLQNCLNLQVSMAVLLVQLAIGNEGSQPIELTFPLPDGYSSLAYVPEFFADNLGDFLIFLRRFADDILETSADSLEHVLHFITIFTGSIERMKNPHLRAKLAEVLEAVMPHLDQTPNPLVSSVFHRKRVFCNFQYAPQLAEALIKVFVDIEFTGDPHQFEQKFNYRRPMYPILRYMWGTDTYRESIKDLADYASKNLEAMNPPLFLRFLNLLMNDAIFLLDEAIQYLSKIKIQQIEKDRGEWDSLTPEARREKEAGLQMFGQLARFHNIMSNETIGTLAFLTSEIKSLFVHPFLAERIISMLNYFLQHLVGPKMGALKVKDFSEFDFKPQQLVSDICTIYLNLGDEENFCATVPKDGRSYSPTLFAQTVRVLKKINKPGNMIMAFSNLAERIKSLADLQQQEEETYADACDEFLDPIMSTLMCDPVVLPSSRVTVDRSTIARHLLSDQTDPFNRSPLTMDQIRPNTELKEKIQRWLAERKQQKEQLE
B2: Serine/threonine-protein kinase 17A (enzyme, UniProt Q9UEE5 1-414)
chain: MIPLEKPGSGGSSPGATSGSGRAGRGLSGPCRPPPPPQARGLLTEIRAVVRTEPFQDGYSLCPGRELGRGKFAVVRKCIKKDSGKEFAAKFMRKRRKGQDCRMEIIHEIAVLELAQDNPWVINLHEVYETASEMILVLEYAAGGEIFDQCVADREEAFKEKDVQRLMRQILEGVHFLHTRDVVHLDLKPQNILLTSESPLGDIKIVDFGLSRILKNSEELREIMGTPEYVAPEILSYDPISMATDMWSIGVLTYVMLTGISPFLGNDKQETFLNISQMNLSYSEEEFDVLSESAVDFIRTLLVKKPEDRATAEECLKHPWLTQSSIQEPSFRMEKALEEANALQEGHSVPEINSDTDKSETKESIVTEELIVVTSYTLGQCRQSEKEKMEQKAISKRFKFEEPLLQEIPGEFIY
B3: Cyclin-G-associated kinase (enzyme, UniProt O14976 1-1311)
chain: MSLLQSALDFLAGPGSLGGASGRDQSDFVGQTVELGELRLRVRRVLAEGGFAFVYEAQDVGSGREYALKRLLSNEEEKNRAIIQEVCFMKKLSGHPNIVQFCSAASIGKEESDTGQAEFLLLTELCKGQLVEFLKKMESRGPLSCDTVLKIFYQTCRAVQHMHRQKPPIIHRDLKVENLLLSNQGTIKLCDFGSATTISHYPDYSWSAQRRALVEEEITRNTTPMYRTPEIIDLYSNFPIGEKQDIWALGCILYLLCFRQHPFEDGAKLRIVNGKYSIPPHDTQYTVFHSLIRAMLQVNPEERLSIAEVVHQLQEIAAARNVNPKSPITELLEQNGGYGSATLSRGPPPPVGPAGSGYSGGLALAEYDQPYGGFLDILRGGTERLFTNLKDTSSKVIQSVANYAKGDLDISYITSRIAVMSFPAEGVESALKNNIEDVRLFLDSKHPGHYAVYNLSPRTYRPSRFHNRVSECGWAARRAPHLHTLYNICRNMHAWLRQDHKNVCVVHCMDGRAASAVAVCSFLCFCRLFSTAEAAVYMFSMKRCPPGIWPSHKRYIEYMCDMVAEEPITPHSKPILVRAVVMTPVPLFSKQRSGCRPFCEVYVGDERVASTSQEYDKMRDFKIEDGKAVIPLGVTVQGDVLIVIYHARSTLGGRLQAKMASMKMFQIQFHTGFVPRNATTVKFAKYDLDACDIQEKYPDLFQVNLEVEVEPRDRPSREAPPWENSSMRGLNPKILFSSREEQQDILSKFGKPELPRQPGSTAQYDAGAGSPEAEPTDSDSPPSSSADASRFLHTLDWQEEKEAETGAENASSKESESALMEDRDESEVSDEGGSPISSEGQEPRADPEPPGLAAGLVQQDLVFEVETPAVLPEPVPQEDGVDLLGLHSEVGAGPAVPPQACKAPSSNTDLLSCLLGPPEAASQGPPEDLLSEDPLLLASPAPPLSVQSTPRGGPPAAADPFGPLLPSSGNNSQPCSNPDLFGEFLNSDSVTVPPSFPSAHSAPPPSCSADFLHLGDLPGEPSKMTASSSNPDLLGGWAAWTETAASAVAPTPATEGPLFSPGGQPAPCGSQASWTKSQNPDPFADLGDLSSGLQGSPAGFPPGGFIPKTATTPKGSSSWQTSRPPAQGASWPPQAKPPPKACTQPRPNYASNFSVIGAREERGVRAPSFAQKPKVSENDFEDLLSNQGFSSRSDKKGPKTIAEMRKQDLAKDTDPLKLKLLDWIEGKERNIRALLSTLHTVLWDGESRWTPVGMADLVAPEQVKKHYRRAVLAVHPDKAAGQPYEQHAKMIFMELNDAWSEFENQGSRPLF
B4: Serine/threonine-protein kinase TNNI3K (enzyme, UniProt Q59H18 1-835)
chain: MGNYKSRPTQTCTDEWKKKVSESYVITIERLEDDLQIKEKELTELRNIFGSDEAFSKVNLNYRTENGLSLLHLCCICGGKKSHIRTLMLKGLRPSRLTRNGFTALHLAVYKDNAELITSLLHSGADIQQVGYGGLTALHIATIAGHLEAADVLLQHGANVNIQDAVFFTPLHIAAYYGHEQVTRLLLKFGADVNVSGEVGDRPLHLASAKGFLNIAKLLMEEGSKADVNAQDNEDHVPLHFCSRFGHHDIVKYLLQSDLEVQPHVVNIYGDTPLHLACYNGKFEVAKEIIQISGTESLTKENIFSETAFHSACTYGKSIDLVKFLLDQNVININHQGRDGHTGLHSACYHGHIRLVQFLLDNGADMNLVACDPSRSSGEKDEQTCLMWAYEKGHDAIVTLLKHYKRPQDELPCNEYSQPGGDGSYVSVPSPLGKIKSMTKEKADILLLRAGLPSHFHLQLSEIEFHEIIGSGSFGKVYKGRCRNKIVAIKRYRANTYCSKSDVDMFCREVSILCQLNHPCVIQFVGACLNDPSQFAIVTQYISGGSLFSLLHEQKRILDLQSKLIIAVDVAKGMEYLHNLTQPIIHRDLNSHNILLYEDGHAVVADFGESRFLQSLDEDNMTKQPGNLRWMAPEVFTQCTRYTIKADVFSYALCLWEILTGEIPFAHLKPAAAAADMAYHHIRPPIGYSIPKPISSLLIRGWNACPEGRPEFSEVVMKLEECLCNIELMSPASSNSSGSLSPSSSSDCLVNRGGPGRSHVAALRSRFELEYALNARSYAALSQSAGQYSSQGLSLEEMKRSLQYTPIDKYGYVSDPMSSMHFHSCRNSSSFEDSS
B5: 3-phosphoinositide-dependent protein kinase 1 (enzyme, UniProt O15530 1-556)
chain: MARTTSQLYDAVPIQSSVVLCSCPSPSMVRTQTESSTPPGIPGGSRQGPAMDGTAAEPRPGAGSLQHAQPPPQPRKKRPEDFKFGKILGEGSFSTVVLARELATSREYAIKILEKRHIIKENKVPYVTRERDVMSRLDHPFFVKLYFTFQDDEKLYFGLSYAKNGELLKYIRKIGSFDETCTRFYTAEIVSALEYLHGKGIIHRDLKPENILLNEDMHIQITDFGTAKVLSPESKQARANSFVGTAQYVSPELLTEKSACKSSDLWALGCIIYQLVAGLPPFRAGNEYLIFQKIIKLEYDFPEKFFPKARDLVEKLLVLDATKRLGCEEMEGYGPLKAHPFFESVTWENLHQQTPPKLTAYLPAMSEDDEDCYGNYDNLLSQFGCMQVSSSSSSHSLSASDTGLPQRSGSNIEQYIHDLDSNSFELDLQFSEDEKRLLLEKQAGGNPWHQFVENNLILKMGPVDKRKGLFARRRQLLLTEGPHLYYVDPVNKVLKGEIPWSQELRPEAKNFKTFFVHTPNRTYYLMDPSGNAHKWCRKIQEVWRQRYQSHPDAAVQ

Columns and labels:
[1] = molecular target: T1, FLAG-tagged OATP1B1 (organic anion transporting polypeptide 1B1); experiment: affinity purification with mass spectrometry; FLAG-IP (M2 resin, overnight, 4 °C) from whole cell lysates of HEK293-FLAG-OATP1B1, HEK293-FLAG-OATP1B3 and HEK293-Mock cells; lysis buffer 50 mM Tris-HCl pH 7.4, 150 mM NaCl, 1 mM EDTA, 1% Triton X-100; seven washes; elution in SDS sample buffer at 60 °C; LC-MS/MS; N = 1; no drug treatment
[2] = molecular target: T2, FLAG-tagged OATP1B3 (organic anion transporting polypeptide 1B3); experiment: as above

Row | Binder | binding [1] | binding [2]
1 | B1 | binds | no binding
2 | B2 | binds | no binding
3 | B3 | binds | binds
4 | B4 | binds | no binding
5 | B5 | binds | binds

Results are given in words; binding and its absence hold for the method and conditions named. In cells and extracts the contact can be indirect. These calls come from enrichment with a bait or labelling near it, and not all partners need be listed. For some of these results: A no says only that the protein was not detected with the bait. Where a sequence is shown, tags or fusion partners need not be part of it.
